From PubChem BioAssay AID540256 (National Center for Advancing Translational Sciences (NCATS), 2011)
The campaign covered roughly 300,000 compounds. About 3,700 (1.2%) were called active. This list was built around the results that the source calls inconclusive (neither active nor inactive); the mix of calls is not that of the screen. Calls follow the shape of the full dose curve; tested in HEK293 cells. Potencies of inconclusive entries are doubtful fits and often do not repeat.

Assay: qHTS for Inhibitors of binding or entry into cells for Lassa Virus; also: nearly all actives have a fitted effect of over 50% in size
Conditions: Lassa virus pseudotype entry inhibition, cell reporter; activity change, negative = inhibition: at 37.9 µM (top of the series) unless noted
% is scaled to controls: 0 for no effect and ±100 for the full control effect; potency is read from the fitted curve at half-maximal effect.

SMILES | Potency | activity change, negative = inhibition
Cc1c(C(=O)Nc2ccc(F)cc2)oc2ccc(S(=O)(=O)N3CC(C)CC(C)C3)cc12 (stereo not drawn) | inconclusive: 20.6 µM [inhibitor, partial curve, poor fit] | 
CC1CCN(C(=O)c2ccc3ccccc3c2)CC1 | inactive | 
COc1ccccc1NC(=O)CN(C)S(=O)(=O)c1ccc2c(c1)c(=O)n(C)c(=O)n2C | inactive | 
COc1ccc(C)cc1NC(=O)NCc1cccn1Cc1ccccc1 | inactive | 
O=S(=O)(c1cccc(-c2csc(-c3cccnc3)n2)c1)N1CCCCC1 | inactive | 
COc1ccc(C(C(=O)NC2CCCCC2)N(C(=O)CCCC(=O)Nc2ccccn2)c2ccc3c(c2)OCCO3)cc1 (stereo not drawn) | inconclusive: 1.64 µM [inhibitor, partial curve, poor fit] | 
COc1ccc(N2CCN(C(CNC(=O)C(=O)NCCc3ccccc3)c3cccnc3)CC2)cc1 (stereo not drawn) | inconclusive: 14.1 µM [inhibitor, single point] | 
N#CCC(=O)N/N=C/c1cc(-c2ccccc2)n(-c2ccc(Cl)cc2)c1-c1ccccc1 | inconclusive: 7.08 µM [inhibitor, partial curve, poor fit] | 
O=C(NCC(=O)N1CCN(c2ccccc2F)CC1)c1cccs1 | inconclusive: 3.55 µM [activator, single point] | 
O=c1c2ccc([N+](=O)[O-])cc2ncn1Cc1ccccc1C(F)(F)F | inactive | 
CCc1cccc(OCC(=O)Nc2ccc(C)c(S(=O)(=O)N3CCCCCC3)c2)c1 | inconclusive: 14.1 µM [inhibitor, partial curve, poor fit] | 
Cc1noc(C)c1S(=O)(=O)N1CCC(C(=O)Nc2ccc(Br)cc2)CC1 | inconclusive: 0.562 µM [activator, full curve, poor fit] | 
O=C(COC(=O)Cc1ccc(Cl)cc1)Nc1ccc(OC(F)F)cc1 | inactive | 
COc1ccc(C=NNC(=S)NN=Cc2ccc(OC)c(OC)c2)cc1OC | inconclusive: 35.5 µM [inhibitor, single point] | 
Cc1cc(C)cc(OCC(=O)OCc2cc([N+](=O)[O-])cc3c2OCOC3)c1 |  | inconclusive: 10% [activator] [at 46.1 µM]
CC(=O)C1=NOC(CNC(=O)c2c(-c3ccccc3Cl)noc2C)C1 (stereo not drawn) | inconclusive: 2.82 µM [activator, full curve, poor fit] | 
O=C(CCNS(=O)(=O)c1ccc(Cl)cc1)N1CCCC1 | inconclusive: 35.5 µM [activator, single point] | 
CCOC(=O)c1c(NS(=O)(=O)c2ccccc2)n(CCCOC)c2nc3ccccc3nc12 | inactive | 
O=C(CC1C(=O)NCCN1Cc1ccc(-c2ccccc2)cc1)NCc1ccccc1 (stereo not drawn) | inconclusive: 35.5 µM [inhibitor, partial curve, poor fit] | 
O=C1CCSc2ccc(S(=O)(=O)Nc3ccc(Cl)c(C(F)(F)F)c3)cc2N1 | inactive | 
CC1CC1C(=O)NCCc1ccc(Cl)cc1 (stereo not drawn) | inactive | 
CC(C)(C)c1ccc(N2C(=O)CSC2c2cccnc2)cc1 (stereo not drawn) | inconclusive: 35.5 µM [inhibitor, partial curve, poor fit] | 
CC(C)CN(CC(C)C)CC(O)COc1ccc([N+](=O)[O-])cc1 (stereo not drawn) | inactive | 

Among those listed so far, 3 have a nitro group on carbon:
SMILES | Potency | activity change, negative = inhibition
O=c1c2ccc([N+](=O)[O-])cc2ncn1Cc1ccccc1C(F)(F)F | inactive | 
Cc1cc(C)cc(OCC(=O)OCc2cc([N+](=O)[O-])cc3c2OCOC3)c1 |  | inconclusive: 10% [activator] [at 46.1 µM]
CC(C)CN(CC(C)C)CC(O)COc1ccc([N+](=O)[O-])cc1 (stereo not drawn) | inactive | 

Additional records

SMILES | Potency | activity change, negative = inhibition
COc1cc(/C=N/NC(=O)c2ccncc2)ccc1OCCN1CCCCC1 | inactive | 
O=C1c2cccnc2C(=O)N1c1ccccc1-c1ccccc1 | inactive | 
CC(C)c1ccc(NC(=O)c2ccc(F)c(S(=O)(=O)N3CCCCCC3)c2)cc1 | inconclusive: 1.26 µM [inhibitor, partial curve, poor fit] | 
COc1ccc(C(=O)Nc2ccccc2C(=O)N/N=C/c2ccccn2)cc1OC | active: 10 µM | 
COc1ccc(N/N=C(\C=N\O)C(=O)c2ccc(OC)cc2)cc1 | active: 2.82 µM | 
CCN(c1ccccc1)S(=O)(=O)c1cccc(C(=O)NCC(c2cccs2)N2CCOCC2)c1 (stereo not drawn) | inconclusive: 35.5 µM [inhibitor, single point] | 
CN1CCN(c2ccc(NC(=O)c3cccs3)cc2)CC1 | inconclusive: 11.2 µM [inhibitor, partial curve, poor fit] | 
COc1cc(-c2cccs2)cc(=O)c2c(C)oc(C)c12 | inactive | 
CCOC(=O)c1c(C)[nH]c(C)c1C(=O)CSc1nnc(-c2ccc(OC(F)F)cc2)o1 | inconclusive: 35.5 µM [inhibitor, single point] | 
O=C(c1cc(=O)[nH]c2ccc(Br)cc12)N1CCC2(CC1)OCCO2 | inactive | 
COc1ccc(-c2csc(NC(=O)[C@H](C)N3C(=O)C4CC=CCC4C3=O)n2)cc1OC (stereo partly drawn) | inconclusive: 35.5 µM [inhibitor, single point] | 
Cc1ccc(NC(=O)COc2cccc(Oc3ccccc3)c2)cc1S(=O)(=O)N1CCOCC1 | inconclusive: 12.6 µM [inhibitor, partial curve, poor fit] | 
CCOC(=O)c1c(NC(=O)CSc2ncccn2)sc2c1CCN(Cc1ccccc1)C2 | inconclusive: 29.1 µM [inhibitor, single point] | 
CCOc1ccc(-c2cc(C(=O)NN=C3CCN(C)CC3)[nH]n2)cc1 | inconclusive: 4.47 µM [inhibitor, partial curve] | 
C=Cn1ccnc1P(=S)(c1ccc2c(c1)c1ccccc1n2CC)c1nccn1C=C | inconclusive: 14.6 µM [inhibitor, partial curve, poor fit] | 
CCN(CC(=O)Nc1ccccc1-c1ccccc1)Cc1nc2ccccc2c(=O)[nH]1 | inconclusive: 7.08 µM [inhibitor, partial curve] | 
O=S(=O)(NC1CC1)c1ccc(S(=O)(=O)N2CCCc3ccccc32)cc1 | inconclusive: 18.3 µM [inhibitor, single point] | 
O=C(Cc1cccc(F)c1)Nc1ccc2c(c1)CCC2 | inactive | 
Cc1nn(-c2ccccc2)c(NC(=O)c2cccs2)c(-c2ccccc2)c1=O | inactive | 
COc1cccc(NC(=O)Nc2nnc(Cc3ccc(OC)c(OC)c3)s2)c1 | inconclusive: 14.1 µM [inhibitor, single point] | 
Oc1ccc(/C=N/N2CCN(C3c4ccccc4-c4ccccc43)CC2)c(O)c1 | inconclusive: 1 µM [inhibitor, full curve, poor fit] | 
CCN(C(=O)c1cc2cc3ccc(OC)cc3nc2o1)c1cccc(C)c1 | inconclusive: 35.5 µM [inhibitor, single point] | 
CCCCC(=O)NC(c1ccc(N(CC)CC)cc1)c1ccc2cccnc2c1O (stereo not drawn) | inconclusive: 2.51 µM [inhibitor, full curve, poor fit] | 

SMILES | Potency | activity change, negative = inhibition
COc1ccc(N2CCN(S(=O)(=O)c3c(C)[nH]c(=O)[nH]c3=O)CC2)cc1 | inactive | 
COc1ccc(CCNC(=O)C(=O)Nc2ccc(C)cc2)cc1OC | inconclusive: 31.6 µM [activator, single point] | 
CCCCC(=O)Nc1ccc(NC(=O)C(C)C)cn1 | inactive | 
Cc1c(C(=O)Nc2ccccc2)sc2nc[nH]c(=O)c12 | inactive | 
COc1ccccc1NC(=O)c1cc(S(=O)(=O)N2CCOCC2)ccc1Cl | inconclusive: 0.259 µM [activator, single point] | 
CCOc1ccc(C(=O)OCC(=O)N(Cc2ccccc2)Cc2ccccc2)cc1OC | inconclusive: 35.5 µM [inhibitor, single point] | 
O=C(Cc1cccs1)Nc1ccc(Cl)cc1 | inactive | 
Cc1cccn2cc(CNc3ccccc3)nc12 | inconclusive: 29.1 µM [activator, single point] | 
COc1ccc(C2CC(c3ccc4ccccc4c3)=NN2C(=O)CSc2ncccn2)cc1 (stereo not drawn) | inconclusive: 31.6 µM [inhibitor, single point] | 
Cn1cccc1/C=N\NC(=O)c1cncc(Br)c1 | inactive | 
COc1ccccc1CNS(=O)(=O)c1ccc2c(c1)CC(C)N2C(=O)C1CCC1 (stereo not drawn) | inactive | 
CN(Cc1ccc(F)cc1)C(=O)C(Cc1ccccc1)NC(=O)c1ccccc1 (stereo not drawn) | inactive | 
Cc1ccc(C)c(S(=O)(=O)N2CCN(C(=O)CCNS(=O)(=O)c3ccc(C)c(C)c3)CC2)c1 | inconclusive: 31.6 µM [inhibitor, single point] | 
COc1ccc(Nc2ncnc3onc(C)c23)c(OC)c1 | inconclusive: 8.91 µM [activator, partial curve, poor fit] | 
OC(CNCCc1ccccc1)COc1ccc(OCC(O)CNCCc2ccccc2)cc1 (stereo not drawn) | inconclusive: 35.5 µM [inhibitor, single point] | 
CCNC(=O)COc1ccc(F)cc1C(=O)c1cnn(-c2ccccc2)c1 | inconclusive: 35.5 µM [inhibitor, partial curve, poor fit] | 
CC(C)NC(=O)C1CCN(C(=O)c2cc3sccc3n2Cc2ccc(F)cc2)CC1 | inconclusive: 8.2 µM [inhibitor, partial curve, poor fit] | 
COc1ccc(C2c3c(ncn(CCCO)c3=N)Oc3ccc4ccccc4c32)cc1 (stereo not drawn) | inconclusive: 35.5 µM [inhibitor, single point] | 
O=C(COC(=O)c1ccccc1S(=O)(=O)N1CCCCC1)NCC(F)(F)F | inactive | 
S=c1[nH]nc(-c2ccn[nH]2)n1-c1ccccc1Cl | inconclusive: 0.501 µM [activator, full curve, poor fit] | 
CCCCn1c(SCc2nc3ccccc3s2)nc2cc(S(N)(=O)=O)ccc21 | inconclusive: 6.51 µM [inhibitor, partial curve, poor fit] | 
CCOc1ccc(S(=O)(=O)N2CCC(C(=O)N3CCCCCC3)CC2)cc1Cl | inconclusive: 31.6 µM [inhibitor, single point] | 

Exported with tabs: 2 of the compounds above
SMILES	Potency	activity change, negative = inhibition
Cn1cccc1/C=N\NC(=O)c1cncc(Br)c1	inactive	
COc1ccccc1CNS(=O)(=O)c1ccc2c(c1)CC(C)N2C(=O)C1CCC1 (stereo not drawn)	inactive	
